Results as given in paper PMC10449881.
No constants are given. Whether binding was seen depends on the method and setting. In cells and extracts the contact can be indirect.

Molecular target: T1, hepatocyte cell adhesion molecule (mouse (endogenous in primary astrocyte cultures)) (UniProt Q640R3)
T1 sequence: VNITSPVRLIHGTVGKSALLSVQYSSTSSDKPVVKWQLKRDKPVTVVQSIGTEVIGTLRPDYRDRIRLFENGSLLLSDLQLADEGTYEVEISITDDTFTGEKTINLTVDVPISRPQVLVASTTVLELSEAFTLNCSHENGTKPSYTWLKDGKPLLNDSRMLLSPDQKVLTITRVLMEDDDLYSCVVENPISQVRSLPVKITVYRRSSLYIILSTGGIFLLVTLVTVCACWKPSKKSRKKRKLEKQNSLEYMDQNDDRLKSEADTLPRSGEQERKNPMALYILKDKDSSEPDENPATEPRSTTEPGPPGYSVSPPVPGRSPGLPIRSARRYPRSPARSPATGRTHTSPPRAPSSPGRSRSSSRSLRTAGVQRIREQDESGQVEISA
Experiment: co-IP; anti-HepaCAM (Affinity Biosciences DF12075) coupled to Dynabeads M-270 Epoxy, incubated overnight at 4 °C; astroglial cell lysate; immunoblot for ApoE; mouse IgG1 beads as control

binding: no binding
B1: apolipoprotein E (protein, UniProt P08226 19-311)
chain: EGEPEVTDQLEWQSNQPWEQALNRFWDYLRWVQTLSDQVQEELQSSQVTQELTALMEDTMTEVKAYKKELEEQLGPVAEETRARLGKEVQAAQARLGADMEDLRNRLGQYRNEVHTMLGQSTEEIRARLSTHLRKMRKRLMRDAEDLQKRLAVYKAGAREGAERGVSAIRERLGPLVEQGRQRTANLGAGAAQPLRDRAQAFGDRIRGRLEEVGNQARDRLEEVREHMEEVRSKMEEQTQQIRLQAEIFQARLKGWFEPIVEDMHRQWANLMEKIQASVATNPIITPVAQENQ
